Source: the supplement of paper PMC12067093, “Discovery and optimisation of a covalent ligand for TRIM25 and its application to targeted protein ubiquitination” (Chemical Science, 2025)
The list shows a part of the results.

Compound: Cc1cc(ccc1-c1ccccc1)C(=O)N1CCCN(CC1)C(=O)CCl [compound 10]
Experiment: probe-labelled cysteine peptide fold change vs DMSO (competition) (log2 fold change); higher = less target engagement (more negative = stronger competition)
Conditions: THP-1, incubation time: 4 h
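Also: competitive profiling in live THP-1 cells: cysteine peptides tagged with an iodoacetamide desthiobiotin (IA-DTB) probe, intensity after compound treatment relative to DMSO-treated cells.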

Row | Target | probe-labelled cysteine peptide fold change (10 µM) | probe-labelled cysteine peptide fold change (50 µM)
1 | NAXD_Q8IW45_108_VGADLSHVFCASAAAPVIK (UniProt Q8IW45) | 0.112 | -0.109
2 | MYO6_Q9UM54_321_MCTAMK (UniProt Q9UM54) | 0.00117 | -0.218
3 | NCAPG_Q9BPX3_843_ICNEILTSPCSPEIR (UniProt Q9BPX3) | 0.135 | -0.0501
4 | MYO1E_Q12965_107_ENQCVIISGESGAGK (UniProt Q12965) | -0.0797 | -0.799
5 | NACC1_Q96RE7_178_TEQQESDSVQCMPVAK (UniProt Q96RE7) | -0.621 | -0.0636
6 | MYO19_Q96H55_826_MACLAAK (UniProt Q96H55) | -0.352 | 0.0221
7 | NAPG_Q99747_193_EIENYPTCYK (UniProt Q99747) | 0.06 | 0.0425
8 | NCDN_Q9UBB6_415_EVCQLLPFLVR (UniProt Q9UBB6) | 0.022 | 0.174
9 | MYO6_Q9UM54_587_HFAGAVCYETTQFVEK (UniProt Q9UM54) | 0.108 | 0.225
10 | NCAPD2_Q15021_1229_DLAYCVSQLPLTER (UniProt Q15021) | -0.143 | -0.177
11 | NAPRT_Q6XQN6_48_CPFGGAFALAAGLRDCVR (UniProt Q6XQN6) | -0.262 | 0.0112
12 | NAPA_P54920_42_IEEACEIYAR (UniProt P54920) | 0.045 | 0.00163
13 | NCBP1_Q09161_409_LDTMNTTCVDR (UniProt Q09161) | -0.127 | 0.385
14 | MYOF_Q9NZM1_1425_ASLLSAPPCR (UniProt Q9NZM1) | -0.131 | -0.138
15 | MYO18A_Q92614_783_SSQHSLCSMMIVDTPGFQNPEQGGSAR (UniProt Q92614) | 0.03 | 0.0532
16 | MYO1C_O00159_585_NPIMSQCFDR (UniProt O00159) | -0.00267 | 0.105

Row | Target | probe-labelled cysteine peptide fold change (10 µM) | probe-labelled cysteine peptide fold change (50 µM)
17 | MYO18A_Q92614_508_TTSCQHLVQYLATIAGISGNK (UniProt Q92614) | 0.00882 | 0.4
18 | MYOF_Q9NZM1_1167_DSFSDPYAHICFLHR (UniProt Q9NZM1) | 0.0801 | 0.0689
19 | NAGA_P17050_80_DMGYTYLNIDDCWIGGR (UniProt P17050) | -0.126 | 0.051
20 | MYO9B_Q13459_34_EQAAYHLHIYPQLSTTESQASCR (UniProt Q13459) | 0.137 | 0.0986
21 | NANS_Q9NR45_19_WVGGQHPCFIIAEIGQNHQGDLDVAKR (UniProt Q9NR45) | 0.167 | -0.417
22 | NAXE_Q8NCW5_115_SPPTVLVICGPGNNGGDGLVCAR (UniProt Q8NCW5) | -0.0561 | -0.201
23 | NBN_O60934_478_DEENQEMSSCK (UniProt O60934) | -0.275 | -0.425
24 | NAPRT_Q6XQN6_533_LQALVNSLCAGQSP (UniProt Q6XQN6) | -0.129 | 0.0286
25 | NCALD_P61601_38_DCPSGHLSMEEFK (UniProt P61601) | 0.158 | 0.404
26 | NAA35_Q5VZE5_420_DCIDSFVTHCVRPFCSLIQIHGHNR (UniProt Q5VZE5) | -0.188 | -0.265
27 | NAXE_Q8NCW5_158_RPNKPLFTALVTQCQK (UniProt Q8NCW5) | -0.0701 | -0.187
28 | NCAPH_Q15003_255+267_TAASFDECSTAGVFLSTLHCQDYR (UniProt Q15003) | -0.0977 | 0.138
29 | NCAPG2_Q86XI2_776_NRECLLSAPR (UniProt Q86XI2) | -0.149 | -0.347
30 | NAA25_Q14CX7_365_KFGDKPCCFTDLK (UniProt Q14CX7) | -0.174 | -0.333
31 | NCBP1_Q09161_36_TSDANETEDHLESLICK (UniProt Q09161) | 0.119 | 0.291

2 entries from above in a different format:
Row	Target	probe-labelled cysteine peptide fold change (10 µM)	probe-labelled cysteine peptide fold change (50 µM)
3	NCAPG_Q9BPX3_843_ICNEILTSPCSPEIR (UniProt Q9BPX3)	0.135	-0.0501
5	NACC1_Q96RE7_178_TEQQESDSVQCMPVAK (UniProt Q96RE7)	-0.621	-0.0636
